These results are taken from patent US20130177572A1.

Chains of the proteins cited; added tags and fusions are not shown. Lines headed by an entry give the natural chain unless they say otherwise; changes in a name come on top. Residues count along the entry.
UniProt P05622, residues 32-530: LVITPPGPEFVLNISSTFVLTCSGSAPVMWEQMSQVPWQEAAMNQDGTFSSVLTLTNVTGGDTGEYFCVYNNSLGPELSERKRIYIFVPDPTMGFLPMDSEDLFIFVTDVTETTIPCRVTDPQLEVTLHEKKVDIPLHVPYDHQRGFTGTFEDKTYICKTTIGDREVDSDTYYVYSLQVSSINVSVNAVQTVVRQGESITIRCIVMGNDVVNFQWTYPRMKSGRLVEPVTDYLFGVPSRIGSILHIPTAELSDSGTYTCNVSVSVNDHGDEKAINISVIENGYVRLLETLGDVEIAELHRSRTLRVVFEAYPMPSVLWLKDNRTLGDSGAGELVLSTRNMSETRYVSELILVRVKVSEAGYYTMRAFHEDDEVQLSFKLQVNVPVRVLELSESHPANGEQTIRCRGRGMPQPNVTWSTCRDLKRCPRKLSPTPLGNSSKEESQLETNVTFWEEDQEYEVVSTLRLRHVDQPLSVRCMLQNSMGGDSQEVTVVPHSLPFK

These are yes or no findings as the source states them, for the method shown. Some binding calls cover weakened binding; strength is not graded here.

Assay [1] concerns the target mouse PDGFR-hIgG1-Fc chimeric fusion protein (mouse; human) (UniProt P05622). Put plainly: SPR (Biacore T100), PDGFR-Fc captured by anti-hIgG1 Fc.
The target in assay [2] is human PDGFR-hIgG1-Fc chimeric fusion protein (human) (UniProt P09619). The description is as above.

B1: XB2708 VH domain (protein)
VH: QVQLVQSGGGVVQPGGSLRLSCAASGFTSRSYGMHWVRQAPGKGLEWVAFILFDGNNKYYADSVKGRFTISSDNSKNTLYLQMNSLRAEDTAVYYCATHGGDRSYWGQGTLVTVSS
In the case of B1, the binding result in assay [1] and in assay [2] was “binds” each time.
